Laboratory results taken from publication doi:10.1101/712448.
Read-outs that look alike come from different tables or passages of the source. Results are given in words; binding and its absence hold for the method and conditions named. Binding seen in cells or lysates may run through a third protein. Some binding calls cover weakened binding; strength is not graded here. Sequences can lack the tags named with a protein.

Sequences of proteins named here, by UniProt entry; tags and fusion partners are left off.
UniProt Q01959, whole entry: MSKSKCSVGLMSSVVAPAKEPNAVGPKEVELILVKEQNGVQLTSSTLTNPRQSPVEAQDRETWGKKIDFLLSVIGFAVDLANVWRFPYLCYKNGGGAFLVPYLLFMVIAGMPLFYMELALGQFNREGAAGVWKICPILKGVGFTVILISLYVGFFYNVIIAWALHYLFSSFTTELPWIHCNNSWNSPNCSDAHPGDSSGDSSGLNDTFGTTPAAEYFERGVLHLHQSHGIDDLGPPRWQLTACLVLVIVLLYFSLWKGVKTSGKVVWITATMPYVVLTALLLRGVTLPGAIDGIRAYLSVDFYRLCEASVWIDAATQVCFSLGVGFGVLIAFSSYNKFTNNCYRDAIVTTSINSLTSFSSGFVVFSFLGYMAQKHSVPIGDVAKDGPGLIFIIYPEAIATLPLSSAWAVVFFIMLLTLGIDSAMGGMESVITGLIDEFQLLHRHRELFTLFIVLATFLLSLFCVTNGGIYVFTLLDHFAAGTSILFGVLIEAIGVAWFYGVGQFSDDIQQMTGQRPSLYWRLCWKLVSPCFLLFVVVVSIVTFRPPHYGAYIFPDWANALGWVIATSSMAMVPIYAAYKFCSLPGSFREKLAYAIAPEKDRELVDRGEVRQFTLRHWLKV
UniProt Q92963, whole entry: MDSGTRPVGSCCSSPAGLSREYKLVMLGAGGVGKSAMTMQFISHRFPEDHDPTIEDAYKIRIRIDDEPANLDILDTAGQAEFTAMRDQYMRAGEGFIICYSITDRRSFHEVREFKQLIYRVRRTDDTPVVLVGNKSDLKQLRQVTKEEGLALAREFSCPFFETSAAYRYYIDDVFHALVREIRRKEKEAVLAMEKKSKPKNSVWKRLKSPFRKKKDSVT
UniProt Q07912, whole entry: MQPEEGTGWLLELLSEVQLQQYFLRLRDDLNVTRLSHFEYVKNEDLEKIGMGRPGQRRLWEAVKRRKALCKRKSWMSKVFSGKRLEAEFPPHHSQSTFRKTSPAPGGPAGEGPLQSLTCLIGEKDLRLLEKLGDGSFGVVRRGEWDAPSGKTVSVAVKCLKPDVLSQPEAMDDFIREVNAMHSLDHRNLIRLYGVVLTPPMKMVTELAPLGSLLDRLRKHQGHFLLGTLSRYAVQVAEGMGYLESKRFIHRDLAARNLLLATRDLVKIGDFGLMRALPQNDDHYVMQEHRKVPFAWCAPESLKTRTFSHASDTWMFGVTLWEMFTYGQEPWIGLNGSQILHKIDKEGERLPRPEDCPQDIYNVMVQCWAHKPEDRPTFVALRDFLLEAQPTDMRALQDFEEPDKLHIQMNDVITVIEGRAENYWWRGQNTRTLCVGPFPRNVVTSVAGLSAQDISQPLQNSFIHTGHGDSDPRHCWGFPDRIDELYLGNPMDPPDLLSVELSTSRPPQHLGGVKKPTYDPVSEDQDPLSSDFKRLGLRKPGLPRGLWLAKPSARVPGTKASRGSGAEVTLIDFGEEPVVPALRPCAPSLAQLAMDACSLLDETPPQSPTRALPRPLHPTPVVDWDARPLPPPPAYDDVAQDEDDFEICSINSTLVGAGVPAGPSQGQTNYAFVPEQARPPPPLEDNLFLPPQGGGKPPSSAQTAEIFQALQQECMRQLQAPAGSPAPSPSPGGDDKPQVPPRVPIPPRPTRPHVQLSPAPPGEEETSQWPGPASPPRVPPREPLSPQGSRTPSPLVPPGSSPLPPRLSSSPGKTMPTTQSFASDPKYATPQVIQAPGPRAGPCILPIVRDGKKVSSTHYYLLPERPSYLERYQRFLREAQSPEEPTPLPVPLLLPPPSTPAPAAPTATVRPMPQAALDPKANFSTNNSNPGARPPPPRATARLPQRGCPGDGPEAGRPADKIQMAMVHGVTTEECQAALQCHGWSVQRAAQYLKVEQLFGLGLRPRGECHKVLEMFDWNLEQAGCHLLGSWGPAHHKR

Experiments:
[1] = biological target: BBS-DAT (bungarotoxin binding site-tagged human dopamine transporter) (human) (UniProt Q01959); experiment: pull-down
[2] = biological target: BBS-tagged N-S/DAT (SERT1-78/DAT60-620) (human) (UniProt P31645); experiment: pull-down
[3] = biological target: BBS-tagged S/DAT/S (SERT1-78/DAT60-583/SERT601-630) (human) (UniProt P31645); experiment: pull-down
[4] = biological target: BBS-tagged DAT/C-S (DAT1-583/SERT601-630) (human) (UniProt Q01959); experiment: pull-down
[5] = biological target: CFP-DAT/C-S (DAT1-583/SERT601-630) (human) (UniProt Q01959+P31645); experiment: FRET or BRET
[6] = biological target: T1, CFP-N-S/DAT (SERT1-78/DAT60-620) (human) (UniProt P31645+Q01959); experiment: FRET or BRET
[7] = biological target: CFP-S/DAT/S (SERT1-78/DAT60-583/SERT601-630) (human) (UniProt P31645+Q01959); experiment: FRET or BRET
CFP-DAT (human) = CFP-DAT (human) (UniProt Q01959); experiment: FRET or BRET
[8] = biological target: T1, CFP-N-S/DAT (SERT1-78/DAT60-620) (human); experiment: FRET or BRET; remark: listed apart in the source

Molecule: GFP-Rit1 (from UniProt Q92963 1-219)
- binding [1]: no binding

Molecule: Ack1-HA (from UniProt Q07912 1-1038)
- binding [1]: binds

B1: HA-Rit2 (protein, UniProt Q99578 1-217)
chain: MEVENEASCSPGSASGGSREYKVVMLGAGGVGKSAMTMQFISHQFPDYHDPTIEDAYKTQVRIDNEPAYLDILDTAGQAEFTAMREQYMRGGEGFIICYSVTDRQSFQEAAKFKELIFQVRHTYEIPLVLVGNKIDLEQFRQVSTEEGLSLAQEYNCGFFETSAALRFCIDDAFHGLVREIRKKESMPSLMEKKLKRKDSLWKKLKGSLKKKRENMT
- binding [2]: binds
- binding [3]: binds
- binding [1]: binds
- binding [4]: binds

B2: YFP-Rit2 (protein, UniProt Q99578 1-217)
chain: B1 chain
- binding [5]: binds
- binding [6]: binds
- binding [7]: binds
- binding (CFP-DAT (human)): binds
- binding [8]: binds
